Laboratory results published in publication PMC7819943, “Rice protein-binding microarrays: a tool to detect cis-acting elements near promoter regions in rice”.
Some of the results follow.

Sequences of proteins named here, by UniProt entry; tags and fusion partners are left off.
UniProt Q0JBA9, entry or part of it: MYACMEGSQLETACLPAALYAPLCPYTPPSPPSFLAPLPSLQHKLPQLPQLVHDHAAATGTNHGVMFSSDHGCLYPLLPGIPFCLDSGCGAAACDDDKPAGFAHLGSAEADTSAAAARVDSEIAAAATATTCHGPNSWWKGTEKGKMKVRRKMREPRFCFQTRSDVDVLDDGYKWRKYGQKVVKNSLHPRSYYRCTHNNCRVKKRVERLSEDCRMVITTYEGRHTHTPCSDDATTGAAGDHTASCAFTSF

molecular target: OsWRKY34 (Oryza sativa, UniProt Q0JBA9 1-250); test: protein-binding microarray (RPBM); PBS, 2% BSA, 51.3 ng/ul salmon testes DNA, 50 uM zinc acetate, 200 nM TF, 25 C, 1 h; high values mean tight binding; details: protein: recombinant; tags: N-terminal polyhistidine and DsRed monomer fusion (pET32a); label: CyDye5-dUTP incorporated in the synthesized complementary strand; 3' TTTTT single-stranded linker to array surface; dsDNA, one strand shown
In short: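 Binding signal is defined as the fluorescence intensity of each feature in arbitrary units, read on an Axon 4000B scanner. Transcription factors with N-terminal polyhistidine and DsRed fusions came from E. coli BL21-CodonPlus and were purified on Ni–NTA. They were incubated at 200 nM for 1 h at 25 °C on a custom Agilent array that had been made double-stranded with Cy5-dUTP, with 50 µM zinc acetate present, and the array was washed.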

Sequence | binding signal
ACGTAAACTTTCAACTTTTTTAACACATCGTTCCAGTTTCCGGAGTCACCTAGTGCAG | 9610 fluorescence intensity (a.u.)
ATTTCTAGGGTTCAAATCAAATCCAACCTCACCTTGTCCTCGGAGTCACCTAGTGCAG | 8880 fluorescence intensity (a.u.)
CCTACACCGTTGCAACACGCGTCAAACTTGCTCGATCTCTCGGAGTCACCTAGTGCAG | 10300 fluorescence intensity (a.u.)
AACACCATCTCTCTTTTCCAACCCTTTTGCCATCGTCCTCCGGAGTCACCTAGTGCAG | 9620 fluorescence intensity (a.u.)
CTGGTGCTCGATTCATAGTTTGACCAGCGGACCCCGTAAACGGAGTCACCTAGTGCAG | 9300 fluorescence intensity (a.u.)
ATAACAATTTATTCTTTTTGTCAAGCTCGTCTCCAGCACCCGGAGTCACCTAGTGCAG | 9140 fluorescence intensity (a.u.)
TGTTTGGATTGCTAATCTGCTGTGCTAAGTCTGTTTAAATCGGAGTCACCTAGTGCAG | 8710 fluorescence intensity (a.u.)
CCCCGTCTGTTTCCACCAAATTCCGTTGATTATCACGGGACGGAGTCACCTAGTGCAG | 10400 fluorescence intensity (a.u.)
GACTAAGGAACATTTCCTCCCCGTTGACCACAAACGAACACGGAGTCACCTAGTGCAG | 14900 fluorescence intensity (a.u.)
TGCCGCCGCCGTCGCCCCAGAGCTCACGTTCCGCTGTCGCCGGAGTCACCTAGTGCAG | 8540 fluorescence intensity (a.u.)
ATTTTCCCGTCTCCTTCGGCGGCATCCACCCCAATTCATCCGGAGTCACCTAGTGCAG | 8430 fluorescence intensity (a.u.)
GGGTTAAATAGCTACTCCATCCATTTCATATTGTAAGACTCGGAGTCACCTAGTGCAG | 8570 fluorescence intensity (a.u.)
TGTGTGCTGCTGCCTGCCTAATTATGATTTATTCCCACACCGGAGTCACCTAGTGCAG | 11300 fluorescence intensity (a.u.)
AAAGCTGTTCTCCACTGTTTCTGTTGCAGGATCCCGTTGACGGAGTCACCTAGTGCAG | 10800 fluorescence intensity (a.u.)
GAGCTTTTTTCTTTCTTTCTTCCATTGCTTTCCTGTATGGCGGAGTCACCTAGTGCAG | 13600 fluorescence intensity (a.u.)
TTTGGTTTGTACGTCGTTGGTTTCGGATGTGATTTTTGCTCGGAGTCACCTAGTGCAG | 8850 fluorescence intensity (a.u.)
GCTCCTCATCATGGTCGCTGCGCTAGGTTTCCTCATGGTGCGGAGTCACCTAGTGCAG | 8890 fluorescence intensity (a.u.)
GAACGGGTCTCCGACTCCTCGTAGTTTTCTCTCTCTTTTTCGGAGTCACCTAGTGCAG | 11900 fluorescence intensity (a.u.)
GCCATATATATTACCCTTATCATTACCATGGCGGGAAAGACGGAGTCACCTAGTGCAG | 8630 fluorescence intensity (a.u.)
TCGCTCTACCGTTTCCACTCGCGGGAGCACCGCGTCCACCCGGAGTCACCTAGTGCAG | 9870 fluorescence intensity (a.u.)
TCGTCGAACGACACCTGCACACACACGCGCACGAGCGACGCGGAGTCACCTAGTGCAG | 8150 fluorescence intensity (a.u.)
TGCTGACTTGGCGTTGACCTGTGAAATTCTCTCGCTTCACCGGAGTCACCTAGTGCAG | 11500 fluorescence intensity (a.u.)
AATGGTTGGTTGTCTGCTGGTGTTAACTGGAGCGGAATTACGGAGTCACCTAGTGCAG | 10500 fluorescence intensity (a.u.)

Taken from above:
binding signal, TCGCTCTACCGTTTCCACTCGCGGGAGCACCGCGTCCACCCGGAGTCACCTAGTGCAG is entered as 9870 fluorescence intensity (a.u.)
binding signal, AAAGCTGTTCTCCACTGTTTCTGTTGCAGGATCCCGTTGACGGAGTCACCTAGTGCAG is entered as 10800 fluorescence intensity (a.u.)
